According to article PMC4684349:
Results are given in words; binding and its absence hold for the method and conditions named. In cells and extracts the contact can be indirect. Here binding means that the protein was enriched with, or labelled near, the bait; the list need not be complete. Tags and fused reporters may be left off the sequences shown.

Sequences of proteins named here, by UniProt entry; tags and fusion partners are left off. Residues count along the entry.
UniProt P39522, residues 21-585: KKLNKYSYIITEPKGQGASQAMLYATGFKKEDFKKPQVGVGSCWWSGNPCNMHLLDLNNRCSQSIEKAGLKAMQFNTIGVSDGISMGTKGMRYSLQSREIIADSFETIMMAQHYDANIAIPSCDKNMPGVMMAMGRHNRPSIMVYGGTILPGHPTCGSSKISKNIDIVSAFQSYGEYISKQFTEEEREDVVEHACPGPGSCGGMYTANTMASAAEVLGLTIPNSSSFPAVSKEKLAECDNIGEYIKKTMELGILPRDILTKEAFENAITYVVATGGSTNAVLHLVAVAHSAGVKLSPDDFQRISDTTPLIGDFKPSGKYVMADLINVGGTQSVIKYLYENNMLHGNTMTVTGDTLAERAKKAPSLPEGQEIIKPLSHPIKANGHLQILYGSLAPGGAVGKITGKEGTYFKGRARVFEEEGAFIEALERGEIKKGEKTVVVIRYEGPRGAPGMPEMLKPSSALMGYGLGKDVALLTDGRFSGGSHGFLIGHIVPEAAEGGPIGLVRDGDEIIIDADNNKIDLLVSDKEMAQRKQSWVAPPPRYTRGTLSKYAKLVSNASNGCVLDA

T1: Bat1-FLAG (S. cerevisiae) (UniProt P38891)
T1 sequence: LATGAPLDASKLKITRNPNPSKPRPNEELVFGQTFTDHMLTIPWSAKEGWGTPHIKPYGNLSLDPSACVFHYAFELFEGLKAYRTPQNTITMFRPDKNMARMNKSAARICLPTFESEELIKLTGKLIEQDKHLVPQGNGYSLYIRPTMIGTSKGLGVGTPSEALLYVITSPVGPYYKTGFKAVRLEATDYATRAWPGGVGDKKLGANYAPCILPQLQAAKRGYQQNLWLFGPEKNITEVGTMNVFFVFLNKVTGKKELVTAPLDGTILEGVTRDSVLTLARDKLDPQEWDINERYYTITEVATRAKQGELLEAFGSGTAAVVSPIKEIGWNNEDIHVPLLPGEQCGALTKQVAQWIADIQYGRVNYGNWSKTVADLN

B1: Aco1 (enzyme, UniProt P19414 17-778)
chain: ATVSNLTRDSKVNQNLLEDHSFINYKQNVETLDIVRKRLNRPFTYAEKILYGHLDDPHGQDIQRGVSYLKLRPDRVACQDATAQMAILQFMSAGLPQVAKPVTVHCDHLIQAQVGGEKDLKRAIDLNKEVYDFLASATAKYNMGFWKPGSGIIHQIVLENYAFPGALIIGTDSHTPNAGGLGQLAIGVGGADAVDVMAGRPWELKAPKILGVKLTGKMNGWTSPKDIILKLAGITTVKGGTGKIVEYFGDGVDTFSATGMGTICNMGAEIGATTSVFPFNKSMIEYLEATGRGKIADFAKLYHKDLLSADKDAEYDEVVEIDLNTLEPYINGPFTPDLATPVSKMKEVAVANNWPLDVRVGLIGSCTNSSYEDMSRSASIVKDAAAHGLKSKTIFTVTPGSEQIRATIERDGQLETFKEFGGIVLANACGPCIGQWDRRDIKKGDKNTIVSSYNRNFTSRNDGNPQTHAFVASPELVTAFAIAGDLRFNPLTDKLKDKDGNEFMLKPPHGDGLPQRGYDAGENTYQAPPADRSTVEVKVSPTSDRLQLLKPFKPWDGKDAKDMPILIKAVGKTTTDHISMAGPWLKYRGHLENISNNYMIGAINAENKKANCVKNVYTGEYKGVPDTARDYRDQGIKWVVIGDENFGEGSSREHAALEPRFLGGFAIITKSFARIHETNLKKQGLLPLNFKNPADYDKINPDDRIDILGLAELAPGKPVTMRVHPKNGKPWDAVLTHTFNDEQIEWFKYGSALNKIKADEKK
B2: Leu4 (enzyme, UniProt P06208 1-619)
chain: MVKESIIALAEHAASRASRVIPPVKLAYKNMLKDPSSKYKPFNAPKLSNRKWPDNRITRAPRWLSTDLRDGNQSLPDPMSVEQKKEYFHKLVNIGFKEIEVSFPSASQTDFDFTRYAVENAPDDVSIQCLVQSREHLIKRTVEALTGAKKATIHTYLATSDMFREIVFNMSREEAISKAVEATKLVRKLTKDDPSQQATRWSYEFSPECFSDTPGEFAVEICEAVKKAWEPTEENPIIFNLPATVEVASPNVYADQIEYFATHITEREKVCISTHCHNDRGCGVAATELGMLAGADRVEGCLFGNGERTGNVDLVTVAMNMYTQGVSPNLDFSDLTSVLDVVERCNKIPVSQRAPYGGDLVVCAFSGSHQDAIKKGFNLQNKKRAQGETQWRIPYLPLDPKDIGRDYEAVIRVNSQSGKGGAAWVILRSLGLDLPRNMQIEFSSAVQDHADSLGRELKSDEISKLFKEAYNYNDEQYQAISLVNYNVEKFGTERRVFTGQVKVGDQIVDIEGTGNGPISSLVDALSNLLNVRFAVANYTEHSLGSGSSTQAASYIHLSYRRNADNEKAYKWGVGVSEDVGDSSVRAIFATINNIIHSGDVSIPSLAEVEGKNAAASGSA
B3: Ilv5 (enzyme, UniProt P06168 48-395)
chain: LKQINFGGTVETVYERADWPREKLLDYFKNDTFALIGYGSQGYGQGLNLRDNGLNVIIGVRKDGASWKAAIEDGWVPGKNLFTVEDAIKRGSYVMNLLSDAAQSETWPAIKPLLTKGKTLYFSHGFSPVFKDLTHVEPPKDLDVILVAPKGSGRTVRSLFKEGRGINSSYAVWNDVTGKAHEKAQALAVAIGSGYVYQTTFEREVNSDLYGERGCLMGGIHGMFLAQYDVLRENGHSPSEAFNETVEEATQSLYPLIGKYGMDYMYDACSTTARRGALDWYPIFKNALKPVFQDLYESTKNGTETKRSLEFNSQPDYREKLEKELDTIRNMEIWKVGKEVRKLRPENQ
B4: Ape2 (enzyme, UniProt P32454 53-952)
chain: NVMWKQSKLTPPRFVKIMNRRPLFTETSHACAKCQKTSQLLNKTPNREILPDNVVPLHYDLTVEPDFKTFKFEGSVKIELKINNPAIDTVTLNTVDTDIHSAKIGDVTSSEIISEEEQQVTTFAFPKGTMSSFKGNAFLDIKFTGILNDNMAGFYRAKYEDKLTGETKYMATTQMEPTDARRAFPCFDEPNLKASFAITLVSDPSLTHLSNMDVKNEYVKDGKKVTLFNTTPKMSTYLVAFIVAELKYVESKNFRIPVRVYATPGNEKHGQFAADLTAKTLAFFEKTFGIQYPLPKMDNVAVHEFSAGAMENWGLVTYRVVDLLLDKDNSTLDRIQRVAEVVQHELAHQWFGNLVTMDWWEGLWLNEGFATWMSWYSCNEFQPEWKVWEQYVTDTLQHALSLDSLRSSHPIEVPVKKADEINQIFDAISYSKGASLLRMISKWLGEETFIKGVSQYLNKFKYGNAKTEDLWDALADASGKDVRSVMNIWTKKVGFPVISVSEDGNGKITFRQNRYLSTADVKPDEDKTIYPVFLALKTKNGVDSSVVLSERSKTIELEDPTFFKVNSEQSGIYITSYTDERWAKLGQQADLLSVEDRVGLVADVKTLSASGYTSTTNFLNLVSKWNNEKSFVVWDQIINSISSMKSTWLFEPKETQDALDNFTKQLISGMTHHLGWEFKSSDSFSTQRLKVTMFGAACAARDADVEKAALKMFTDYCSGNKEAIPALIKPIVFNTVARVGGAENYEKVYKIYLDPISNDEKLAALRSLGRFKEPKLLERTLGYLFDGTVLNQDIYIPMQGMRAHQEGVEALWNWVKKNWDELVKRLPPGLSMLGSVVTLGTSGFTSMQKIDEIKKFFATKSTKGFDQSLAQSLDTITSKAQWVNRDRDVVNKYLKENGYY

Molecular target: T1, Bat1-FLAG (S. cerevisiae)
Test: affinity purification with mass spectrometry; Bat1-FLAG expressed in the bat1 mutant strain and immunoprecipitated by FLAG; co-immunoprecipitated proteins identified by LC-MS/MS; control immunoprecipitates from FLAG-untagged cells

binding, binds:
Ilv3 (from UniProt P39522 21-585) (enzyme), B1, B2, B3, B4
